Patent US20240123070A1, “EPITOPE PEPTIDE OF RAS G13D MUTANT AND T CELL RECEPTOR RECOGNIZING RAS G13D MUTANT” (SHANGHAI GENBASE BIOTECHNOLOGY CO., LTD., priority 2021, published 2024)

B1: β98P-A: B8.2.4 TCR point mutant, Vβ-CDR3 98P to A (protein)
TCR alpha: AQKITQTQPGMFVQEKEAVTLDCTYDTSDPSYGLFWYKQPSSGEMIFLIYQGSYDQQNATEGRYSLNFQKARKSANLVISASQLGDSAMYFCAMRERTGTASKLTFGTGTRLQVTLDIQNPEPAVYQLKDPRSQDSTLCLFTDFDSQINVPKTMESGTFITDKTVLDMKAMDSKSNGAIAWSNQTSFTCQDIFKETNATYPSSDVPCDATLTEKSFETDMNLNFQNLSVMGLRILLLKVAGFNLLMTLRLWSS
TCR beta: DVKVTQSSRYLVKRTGEKVFLECVQDMDHENMFWYRQDPGLGLRLIYFSYDVKMKEKGDIPEGYSVSREKKERFSLILESASTNQTSMYLCASSQTVAPQHFGDGTRLSILEDLRNVTPPKVSLFEPSKAEIANKQKATLVCLARGFFPDHVELSWWVNGKEVHSGVSTDPQAYKESNYSYCLSSRLRVSATFWHNPRNHFRCQVQFHGLSEEDKWPEGSPKPVTQNISAEAWGRADCGITSASYQQGVLSATILYEILLGKATLYAVLVSTLVVMAMVKRKNS
B2: β98P-C: B8.2.4 TCR point mutant, Vβ-CDR3 98P to C; CDR3β ASSQTVCPQH (protein)
TCR alpha: B1 TCR alpha
TCR beta: B1 TCR beta with A98C
B3: β98P-D: B8.2.4 TCR point mutant, Vβ-CDR3 98P to D; CDR3β ASSQTVDPQH (protein)
TCR alpha: B1 TCR alpha
TCR beta: B1 TCR beta with A98D
B4: β98P-E: B8.2.4 TCR point mutant, Vβ-CDR3 98P to E; CDR3β ASSQTVEPQH (protein)
TCR alpha: B1 TCR alpha
TCR beta: B1 TCR beta with A98E
B5: β98P-F: B8.2.4 TCR point mutant, Vβ-CDR3 98P to F; CDR3β ASSQTVFPQH (protein)
TCR alpha: B1 TCR alpha
TCR beta: B1 TCR beta with A98F
B6: β98P-G: B8.2.4 TCR point mutant, Vβ-CDR3 98P to G; CDR3β ASSQTVGPQH (protein)
TCR alpha: B1 TCR alpha
TCR beta: B1 TCR beta with A98G
B7: β98P-H: B8.2.4 TCR point mutant, Vβ-CDR3 98P to H; CDR3β ASSQTVHPQH (protein)
TCR alpha: B1 TCR alpha
TCR beta: B1 TCR beta with A98H
B8: β98P-I: B8.2.4 TCR point mutant, Vβ-CDR3 98P to I (protein)
TCR alpha: B1 TCR alpha
TCR beta: B1 TCR beta with A98I
B9: β98P-K: B8.2.4 TCR point mutant, Vβ-CDR3 98P to K (protein)
TCR alpha: B1 TCR alpha
TCR beta: B1 TCR beta with A98K
B10: β98P-L: B8.2.4 TCR point mutant, Vβ-CDR3 98P to L; CDR3β ASSQTVLPQH (protein)
TCR alpha: B1 TCR alpha
TCR beta: B1 TCR beta with A98L
B11: β98P-M: B8.2.4 TCR point mutant, Vβ-CDR3 98P to M; CDR3β ASSQTVMPQH (protein)
TCR alpha: B1 TCR alpha
TCR beta: B1 TCR beta with A98M
B12: β98P-N: B8.2.4 TCR point mutant, Vβ-CDR3 98P to N (protein)
TCR alpha: B1 TCR alpha
TCR beta: B1 TCR beta with A98N
B13: β98P-R: B8.2.4 TCR point mutant, Vβ-CDR3 98P to R; CDR3β ASSQTVRPQH (protein)
TCR alpha: B1 TCR alpha
TCR beta: B1 TCR beta with A98R
B14: β98P-Q: B8.2.4 TCR point mutant, Vβ-CDR3 98P to Q (protein)
TCR alpha: B1 TCR alpha
TCR beta: B1 TCR beta with A98Q
B15: β98P-S: B8.2.4 TCR point mutant, Vβ-CDR3 98P to S; CDR3β ASSQTVSPQH (protein)
TCR alpha: B1 TCR alpha
TCR beta: B1 TCR beta with A98S
B16: β98P-T: B8.2.4 TCR point mutant, Vβ-CDR3 98P to T (protein)
TCR alpha: B1 TCR alpha
TCR beta: B1 TCR beta with A98T
B17: β98P-V: B8.2.4 TCR point mutant, Vβ-CDR3 98P to V; CDR3β ASSQTVVPQH (protein)
TCR alpha: B1 TCR alpha
TCR beta: B1 TCR beta with A98V
B18: β98P-W: B8.2.4 TCR point mutant, Vβ-CDR3 98P to W; CDR3β ASSQTVWPQH (protein)
TCR alpha: B1 TCR alpha
TCR beta: B1 TCR beta with A98W
B19: β98P-Y: B8.2.4 TCR point mutant, Vβ-CDR3 98P to Y (protein)
TCR alpha: B1 TCR alpha
TCR beta: B1 TCR beta with A98Y

Each molecule was assayed on murine TCRβ constant region (assay: mTCRβ expression detection on Jurkat-NFAT-Luc cells). Conditions: TCR mutant transduced Jurkat-NFAT-Luc cells.
Type: cell-based

| Molecule | mTCRβ % [%] |
| --- | --- |
| B1 | 67.6 |
| B2 | 80.7 |
| B3 | 82 |
| B4 | 60.8 |
| B5 | 82.5 |
| B6 | 81.5 |
| B7 | 72.9 |
| B8 | 66.4 |
| B9 | 63.8 |
| B10 | 72.5 |
| B11 | 61.2 |
| B12 | 75.8 |
| B13 | 78 |
| B14 | 67.8 |
| B15 | 76.3 |
| B16 | 54 |
| B17 | 77.2 |
| B18 | 81 |
| B19 | 54 |

Where a chain is given by its changes, count along the chain named.
